# In the supplement of paper PMC8728848:
# Some of the results follow.
# B1: SLLPI (Homo sapiens), Q8IXA5 (protein)
# chain: MVSALRGAPLIRVHSSPVSSPSVSGPRRLVSCLSSQSSALSQSGGGSTSAAGIEARSRALRRRWCPAGIMLLALVCLLSCLLPSSEAKLYGRCELARVLHDFGLDGYRGYSLADWVCLAYFTSGFNAAALDYEADGSTNNGIFQINSRRWCSNLTPNVPNVCRMYCSDLLNPNLKDTVICAMKITQEPQGLGYWEAWRHHCQGKDLTEWVDGCDF
# Assays:
# Assay in all cases: glycan array binding signal (z-score within array); higher = stronger binding
# Conditions in all cases: glycan notation: IUPAC condensed, linker removed
# [1] = target: Neu5Ac(a2-3)Gal(b1-4)GlcNAc6S
# Method in brief: (§1)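 The binding signal is a Z-score computed within each array and averaged over linkers. Arrays of the same protein sequence at different concentrations or buffers were also averaged together. Data originate from 3228 arrays in the Consortium for Functional Glycomics database, kept only where the protein sequence was available.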
# [2] = target: Neu5Ac(a2-3)Gal(b1-4)[Fuc(a1-3)]GlcNAc
# Method in brief: as §1
# [3] = target: Neu5Ac(a2-3)Gal(b1-4)[Fuc(a1-3)]GlcNAc(b1-3)Gal
# Method in brief: as §1
# [4] = target: Neu5Ac(a2-3)Gal(b1-4)[Fuc(a1-3)]GlcNAc(b1-3)Gal(b1-4)GlcNAc
# Method in brief: as §1
# [5] = target: Neu5Ac(a2-3)Gal(b1-4)[Fuc(a1-3)]GlcNAc(b1-3)Gal(b1-4)[Fuc(a1-3)]GlcNAc(b1-3)Gal(b1-4)[Fuc(a1-3)]GlcNAc
# Method in brief: as §1
# [6] = target: Neu5Ac(a2-3)Gal(b1-4)[Fuc(a1-3)]GlcNAc(b1-6)[Gal(b1-3)]GalNAc
# Method in brief: as §1
# [7] = target: Neu5Ac(a2-3)Gal(b1-4)[Fuc(a1-3)]GlcNAc6S
# Method in brief: as §1
# [8] = target: Neu5Ac(a2-3)Gal6S(b1-4)GlcNAc
# Method in brief: as §1
# [9] = target: Neu5Ac(a2-3)Gal6S(b1-4)[Fuc(a1-3)]GlcNAc
# Method in brief: as §1
# Neu5Ac(a2-3)GalNAc = target: Neu5Ac(a2-3)GalNAc
# Method in brief: as §1
# [10] = target: Neu5Ac(a2-3)GalNAc(b1-4)GlcNAc
# Method in brief: as §1
# [11] = target: Neu5Ac(a2-3)[GalNAc(b1-4)]Gal(b1-4)Glc
# Method in brief: as §1
# [12] = target: Neu5Ac(a2-3)[GalNAc(b1-4)]Gal(b1-4)GlcNAc
# Method in brief: as §1
# [13] = target: Neu5Ac(a2-3)[Neu5Ac(a2-6)]GalNAc
# Method in brief: as §1
# Neu5Ac(a2-6)Gal = target: Neu5Ac(a2-6)Gal
# Method in brief: as §1
# Neu5Ac(a2-6)Gal(b1-4)Glc = target: Neu5Ac(a2-6)Gal(b1-4)Glc
# Method in brief: as §1
# [14] = target: Neu5Ac(a2-6)Gal(b1-4)GlcNAc
# Method in brief: as §1
# [15] = target: Neu5Ac(a2-6)Gal(b1-4)GlcNAc(b1-2)Man(a1-3)[Gal(b1-4)GlcNAc(b1-2)Man(a1-6)]Man(b1-4)GlcNAc(b1-4)GlcNAc
# Method in brief: as §1
# [16] = target: Neu5Ac(a2-6)Gal(b1-4)GlcNAc(b1-2)Man(a1-3)[GlcNAc(b1-2)Man(a1-6)]Man(b1-4)GlcNAc(b1-4)GlcNAc
# Method in brief: as §1
# [17] = target: Neu5Ac(a2-6)Gal(b1-4)GlcNAc(b1-2)Man(a1-3)[GlcNAc(b1-2)Man(b1-4)GlcNAc(b1-2)Man(a1-6)]Man(b1-4)GlcNAc(b1-4)GlcNAc
# Method in brief: as §1
# [18] = target: Neu5Ac(a2-6)Gal(b1-4)GlcNAc(b1-2)Man(a1-3)[Neu5Ac(a2-6)Gal(b1-4)GlcNAc(b1-2)Man(a1-6)]Man(b1-4)GlcNAc(b1-4)GlcNAc
# Method in brief: as §1
# [19] = target: Neu5Ac(a2-6)Gal(b1-4)GlcNAc(b1-2)Man(a1-6)[Gal(b1-4)GlcNAc(b1-2)Man(a1-3)]Man(b1-4)GlcNAc(b1-4)GlcNAc
# Method in brief: as §1
# [20] = target: Neu5Ac(a2-6)Gal(b1-4)GlcNAc(b1-2)Man(a1-6)[GlcNAc(b1-2)Man(a1-3)]Man(b1-4)GlcNAc(b1-4)GlcNAc
# Method in brief: as §1
# [21] = target: Neu5Ac(a2-6)Gal(b1-4)GlcNAc(b1-3)Gal(b1-4)GlcNAc
# Method in brief: as §1
# [22] = target: Neu5Ac(a2-6)Gal(b1-4)GlcNAc(b1-3)Gal(b1-4)[Fuc(a1-3)]GlcNAc(b1-3)Gal(b1-4)[Fuc(a1-3)]GlcNAc
# Method in brief: as §1
# [23] = target: Neu5Ac(a2-6)Gal(b1-4)GlcNAc6S
# Method in brief: as §1
# Neu5Ac(a2-6)GalNAc = target: Neu5Ac(a2-6)GalNAc
# Method in brief: as §1
# [24] = target: Neu5Ac(a2-6)GalNAc(b1-4)GlcNAc
# Method in brief: as §1
# Neu5Ac(a2-8)Neu5Ac = target: Neu5Ac(a2-8)Neu5Ac
# Method in brief: as §1
# [25] = target: Neu5Ac(a2-8)Neu5Ac(a2-3)Gal(b1-4)Glc
# Method in brief: as §1
# [26] = target: Neu5Ac(a2-8)Neu5Ac(a2-3)[GalNAc(b1-4)]Gal(b1-4)Glc
# Method in brief: as §1
# [27] = target: Neu5Ac(a2-8)Neu5Ac(a2-8)Neu5Ac
# Method in brief: as §1
# [28] = target: Neu5Ac(a2-8)Neu5Ac(a2-8)Neu5Ac(a2-3)Gal(b1-4)Glc
# Method in brief: as §1
# [29] = target: Neu5Ac(a2-8)Neu5Ac(a2-8)Neu5Ac(a2-3)[GalNAc(b1-4)]Gal(b1-4)Glc
# Method in brief: as §1
# [30] = target: Neu5Ac(a2-8)Neu5Ac(a2-8)Neu5Ac(a2-8)Neu5Ac(a2-3)[GalNAc(b1-4)]Gal(b1-4)Glc
# Method in brief: as §1
# [31] = target: Neu5Ac(b2-6)Gal(b1-4)GlcNAc
# Method in brief: as §1
# Neu5Ac(b2-6)GalNAc = target: Neu5Ac(b2-6)GalNAc
# Method in brief: as §1
# [32] = target: Neu5Ac9Ac(a2-6)Gal(b1-4)GlcNAc
# Method in brief: as §1
# [33] = target: Neu5Gc(a2-3)Gal(b1-3)GlcNAc
# Method in brief: as §1
# [34] = target: Neu5Gc(a2-3)Gal(b1-3)[Fuc(a1-4)]GlcNAc
# Method in brief: as §1
# Neu5Gc(a2-3)Gal(b1-4)Glc = target: Neu5Gc(a2-3)Gal(b1-4)Glc
# Method in brief: as §1
# [35] = target: Neu5Gc(a2-3)Gal(b1-4)GlcNAc
# Method in brief: as §1
# [36] = target: Neu5Gc(a2-3)Gal(b1-4)[Fuc(a1-3)]GlcNAc
# Method in brief: as §1
# [37] = target: Neu5Gc(a2-6)Gal(b1-4)GlcNAc
# Method in brief: as §1
# Neu5Gc(a2-6)GalNAc = target: Neu5Gc(a2-6)GalNAc
# Method in brief: as §1
# [38] = target: Neu5Gc(b2-6)Gal(b1-4)GlcNAc
# Method in brief: as §1
binder,measurement,setting,value
B1,glycan array binding signal (z-score),[1],0.437
same,glycan array binding signal (z-score),[2],-0.047
same,glycan array binding signal (z-score),[3],-0.234
same,glycan array binding signal (z-score),[4],0.654
same,glycan array binding signal (z-score),[5],0.311
same,glycan array binding signal (z-score),[6],0.494
same,glycan array binding signal (z-score),[7],0.031
same,glycan array binding signal (z-score),[8],-0.261
same,glycan array binding signal (z-score),[9],-0.072
same,glycan array binding signal (z-score),Neu5Ac(a2-3)GalNAc,-0.101
same,glycan array binding signal (z-score),[10],-0.64
same,glycan array binding signal (z-score),[11],-0.288
same,glycan array binding signal (z-score),[12],-0.532
same,glycan array binding signal (z-score),[13],0.313
same,glycan array binding signal (z-score),Neu5Ac(a2-6)Gal,0.171
same,glycan array binding signal (z-score),Neu5Ac(a2-6)Gal(b1-4)Glc,-0.06
same,glycan array binding signal (z-score),[14],-0.117
same,glycan array binding signal (z-score),[15],0.118
same,glycan array binding signal (z-score),[16],-0.345
same,glycan array binding signal (z-score),[17],0.145
same,glycan array binding signal (z-score),[18],0.032
same,glycan array binding signal (z-score),[19],-0.306
same,glycan array binding signal (z-score),[20],-0.255
same,glycan array binding signal (z-score),[21],0.493
same,glycan array binding signal (z-score),[22],-0.206
same,glycan array binding signal (z-score),[23],0.03
same,glycan array binding signal (z-score),Neu5Ac(a2-6)GalNAc,-0.41
same,glycan array binding signal (z-score),[24],-0.697
same,glycan array binding signal (z-score),Neu5Ac(a2-8)Neu5Ac,-0.007
same,glycan array binding signal (z-score),[25],-0.094
same,glycan array binding signal (z-score),[26],0.102
same,glycan array binding signal (z-score),[27],-0.009
same,glycan array binding signal (z-score),[28],-0.507
same,glycan array binding signal (z-score),[29],0.054
same,glycan array binding signal (z-score),[30],0.298
same,glycan array binding signal (z-score),[31],-0.505
same,glycan array binding signal (z-score),Neu5Ac(b2-6)GalNAc,-0.39
same,glycan array binding signal (z-score),[32],-0.472
same,glycan array binding signal (z-score),[33],0.123
same,glycan array binding signal (z-score),[34],0.002
same,glycan array binding signal (z-score),Neu5Gc(a2-3)Gal(b1-4)Glc,0.335
same,glycan array binding signal (z-score),[35],-0.286
same,glycan array binding signal (z-score),[36],-0.339
same,glycan array binding signal (z-score),[37],-0.251
same,glycan array binding signal (z-score),Neu5Gc(a2-6)GalNAc,-0.28
same,glycan array binding signal (z-score),[38],-0.447

# Given bar-delimited: part of the list above
binder | measurement | setting | value
B1 | glycan array binding signal (z-score) | Neu5Ac(a2-6)Gal | 0.171
same | glycan array binding signal (z-score) | Neu5Ac(a2-6)Gal(b1-4)Glc | -0.06
same | glycan array binding signal (z-score) | [14] | -0.117
same | glycan array binding signal (z-score) | [15] | 0.118
same | glycan array binding signal (z-score) | [16] | -0.345
same | glycan array binding signal (z-score) | [17] | 0.145
same | glycan array binding signal (z-score) | [18] | 0.032
same | glycan array binding signal (z-score) | [19] | -0.306
same | glycan array binding signal (z-score) | [20] | -0.255
same | glycan array binding signal (z-score) | [21] | 0.493
same | glycan array binding signal (z-score) | [22] | -0.206
